Laboratory results: publication doi:10.1101/2025.05.07.652675
Results are given in words; binding and its absence hold for the method and conditions named. Some entries that bind do so weakly or less than the wild type. Sequences can lack the tags named with a protein.

Protein sequences, listed by entry. Tags and fused reporters are not part of them. Residues count along the entry.
UniProt P0A9A6, 316-370: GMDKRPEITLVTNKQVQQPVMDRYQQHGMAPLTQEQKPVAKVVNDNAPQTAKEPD
UniProt P0A9A6, 316-383: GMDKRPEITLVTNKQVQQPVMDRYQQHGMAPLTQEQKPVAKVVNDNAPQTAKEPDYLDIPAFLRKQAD

Assays:
Experiment in all cases: two-hybrid
[1] = biological target: FtsZ^316-370 (bacterial two-hybrid fusion) (E. coli) (UniProt P0A9A6)
[2] = biological target: FtsZ^316-383 (bacterial two-hybrid fusion) (E. coli) (UniProt P0A9A6)
[3] = biological target: FtsZ^370-383 (bacterial two-hybrid fusion) (E. coli) (UniProt P0A9A6)
[4] = biological target: T1, FtsZ^370-383 (bacterial two-hybrid fusion) (E. coli), P0A9A6; conditions: remark: other sources report otherwise
T1 chain: DYLDIPAFLRKQAD

B1: FtsA (bacterial two-hybrid fusion) (protein, UniProt P0ABH0 1-420)
chain: MIKATDRKLVVGLEIGTAKVAALVGEVLPDGMVNIIGVGSCPSRGMDKGGVNDLESVVKCVQRAIDQAELMADCQISSVYLALSGKHISCQNEIGMVPISEEEVTQEDVENVVHTAKSVRVRDEHRVLHVIPQEYAIDYQEGIKNPVGLSGVRMQAKVHLITCHNDMAKNIVKAVERCGLKVDQLIFAGLASSYSVLTEDERELGVCVVDIGGGTMDIAVYTGGALRHTKVIPYAGNVVTSDIAYAFGTPPSDAEAIKVRHGCALGSIVGKDESVEVPSVGGRPPRSLQRQTLAEVIEPRYTELLNLVNEEILQLQEKLRQQGVKHHLAAGIVLTGGAAQIEGLAACAQRVFHTQVRIGAPLNITGLTDYAQEPYYSTAVGLLHYGKESHLNGEAEVEKRVTASVGSWIKRLNSWLRKEF
B1 was tested, and the binding [1] was “no binding”, the binding [2] was “binds” and the binding [3] was “no binding”.

B2: SlmA (bacterial two-hybrid fusion) (protein, UniProt P0C093 1-198)
chain: MAEKQTAKRNRREEILQSLALMLESSDGSQRITTAKLAASVGVSEAALYRHFPSKTRMFDSLIEFIEDSLITRINLILKDEKDTTARLRLIVLLLLGFGERNPGLTRILTGHALMFEQDRLQGRINQLFERIEAQLRQVLREKRMREGEGYTTDETLLASQILAFCEGMLSRFVRSEFKYRPTDDFDARWPLIAAQLQ
In the case of B2, the binding [1] is reported as “no binding” and the binding [2] is reported as “binds”.

B3: MinC (bacterial two-hybrid fusion) (protein, UniProt P18196 1-231)
chain: MSNTPIELKGSSFTLSVVHLHEAEPKVIHQALEDKIAQAPAFLKHAPVVLNVSALEDPVNWSAMHKAVSATGLRVIGVSGCKDAQLKAEIEKMGLPILTEGKEKAPRPAPTPQAPAQNTTPVTKTRLIDTPVRSGQRIYAPQCDLIVTSHVSAGAELIADGNIHVYGMMRGRALAGASGDRETQIFCTNLMAELVSIAGEYWLSDQIPAEFYGKAARLQLVENALTVQPLN
With B3 the binding [1] was “no binding”, the binding [2] was “binds” and the binding [3] was “no binding”.

B4: SlmA (bacterial two-hybrid fusion), P0C093 1-198 (protein)
chain: B2 chain
B4 was tested, and the binding [4] was “no binding”.
